Laboratory results reported in paper PMC10163288.
The list shows a part of the results.

B1: il2ra_site1_2b5i_normal_mot_HHH_b1_02271_000000068_0001_1_16_H_._HHH_b1_07377_0001_0000200018_0000001_0_af2pred_dldesign_0_af2pred (protein)
chain: SSSSDLEAEKERVVAEARALAKTDLRAALEALDEIYKKLADAGLDELADEVYDLALELLKSSSSS
B2: il2ra_site2_2erj_sap_23_mot_136a1b26558f6d63e39c8b7f62c9aa34_0001_af2_000000152_0001_1_15_H_._HHH_b2_07934_af2_0001_0000500021_0000001_0_0001 (protein)
chain: SSSSSEDFERLFELHREVAELKEEGNPEEAEELIREAEELAKEWGSEAFLRSLELLREQLESSSS
B3: il2ra_site2_3nfp_normal_mot_HHH_b2_04451_000000238_0001_21_37_H_._HHH_b2_04195_af2_0001_0000100003_0000001_0 (protein)
chain: SSSSSEEERVRELLEQAEELLERGDPAEALRLLAEATEIAARLNNEELARLILELFEKVQKSSSS
B4: il2ra_site1_2b5i_normal_mot_ems_3hM_3687_af2_000000248_0001_45_64_H_._HHH_b2_05474_af2_0001_0000100001_0000001_0_af2pred_dldesign_0_af2pred (protein)
chain: SSSSSEAERLVAEATAEATRLKAEGKRLEALKVLEAAYKELAALDDDEAMARLEEKAKELLSSSS
B5: il2ra_site2_2erj_sap_22_mot_HHH_b2_01204_af2_000000056_0001_19_34_H_._HHH_b2_01084_af2_0001_0000300020_0000001_0_0001_af2pred_0001_af2pred (protein)
chain: SSSSSEELEELLERLREVDELARNGNPEEAQRLLEEALKELEEEGDRAAARLLRALAKLLSSSSS
B6: il2ra_site1_1z92_sap_30_mot_HHH_b1_02756_000000071_0001_20_37_H_._HHH_b1_08486_af2_0001_0000300012_0000001_0_0001_af2pred_0001_af2pred (protein)
chain: SSSSSLELIQAALEIVLELAEELGLSEEDAHRLAELAAKLAARGVSEEEIREILEEEAEQLSSSS
B7: il2ra_site2_3nfp_sap_20_mot_HHH_b1_04781_af2_000000057_0001_1_18_H_._HHH_b2_05984_0001_0000400021_0000001_0_0001 (protein)
chain: SSSSDDEVAEAAVEDARILAERNGNEELLEELERALEEARKEGDPKLFIELYEIIREILETSSSS
B8: il2ra_site1_1z92_sap_19_mot_HHH_b1_05862_af2_000000270_0001_22_38_H_._HHH_b1_03912_0001_0000200008_0000001_0_0001_af2pred_0001_af2pred (protein)
chain: SRLEEQVRRLLEIAGDPEQAVKLVERFAKRDLELGDPESAQEVLEVAVEILGDPRLEELLEEIRK
B9: il2ra_site2_2erj_normal_mot_HHH_b1_02520_af2_000000126_0001_18_35_H_._HHH_b1_04609_af2_0001_0000200003_0000001_0 (protein)
chain: SSSSDEEARELAKELEEAVERNDQHLVAELLVELWKAVEKYDDPELFEILVKIVRELDELSSSSS
B10: il2ra_site1_2b5i_normal_mot_f5ff40796168375b462bec8614a1db4a_0001_1_000000138_0001_53_65_H_._HHH_b1_01434_0001_0000200021_0000001_0_af2pred_dldesign_0_af2pred (protein)
chain: SSSSSDKRELLAELVAEAEALKKAGKKEEAYKLLRLARRLAKKAGDEETLAEIEELLKKLSSSSS
B11: il2ra_site2_3nfp_sap_18_mot_11b3ddc2b075f9cf8bd0803d3c309881_0001_1_000000111_0001_16_31_H_._HHH_b2_07906_0001_0000100006_0000001_0_0001 (protein)
chain: SSSSDEEVEELLEEAQRAAEEGDPEKARELVRRASQLAWELNDPELFFKVAELLYRIVQLKSSSS
B12: il2ra_site2_3nfp_normal_mot_HHH_b1_02676_000000052_0001_38_56_H_._HHH_b2_04155_0001_0000100010_0000001_0 (protein)
chain: SSSSDEEQLIEALVRSAKYLAKRVEDPEEREELERLAEELEREGDPRLLAELYELVARIYLSSSS
B13: il2ra_site2_3nfp_sap_21_mot_HHH_b1_04032_000000208_0001_43_56_H_._4e434c304959112f243d813f61b0e3cb_0001_af2_0001_0000400018_0000001_0_0001 (protein)
chain: DSSELLMEAARRDPRVYELILLLYELADNNDPEKVKEVEEELEELLKELGIPPEQVERILRLARQ
B14: il2ra_site2_3nfp_sap_18_mot_HHH_b1_06174_af2_000000017_0001_40_57_H_._3020bb65e3c0c4c1750efda2a61ed53f_0001_1_0001_0000300033_0000001_0_0001_af2pred_0001_af2pre … (protein)
chain: SSSSSDELEEEVERLLEEAKRIPDPEERFFVLADAFFLVAHSDNEELFELVRRVSQELQSSSSSS
B15: il2ra_site1_3nfp_normal_mot_HHH_b1_07180_af2_000000260_0001_1_19_H_._HHH_b1_05632_af2_0001_0000100009_0000001_0 (protein)
chain: SSSDLLEEVLRLAEEALRLAWEGDREEAEELVREAIKLAEEANDENSRRFLERLLRQIEQFSSSS
B16: il2ra_site1_1z92_sap_26_mot_8b466c8ab6a4ea9d290724e70e8647ea_0001_000000119_0001_54_65_H_._2874ac36c98298a0dc4d99a960bb3065_0001_af2_0001_0000400046_0000001_0_0 … (protein)
chain: SSSSSTEKQLEYLEEQARRKYERGDPEAAERFIKHAIKLAEESNDEEVRERLEKLEEELRSSSSS
B17: il2ra_site1_2b5i_normal_mot_HHH_b1_00095_000000044_0001_1_14_H_._HHH_b1_06770_af2_0001_0000400056_0000001_0_af2pred_dldesign_0_af2pred (protein)
chain: SSSSSDREAEAEKKIAEAKALKEAGKKKEALELLDELHKELAALGDEEREARVEELAAEISSSSS
B18: il2ra_site2_2erj_sap_25_mot_HHH_b1_06157_000000296_0001_22_38_H_._HHH_b1_06233_0001_0000500029_0000001_0_0001 (protein)
chain: SSSDWLHRLYELANELMRAVAEGDEELFEELLEEARELAERAQTDAVEEFLEALERQFKDHSSSS
B19: il2ra_site1_3nfp_sap_26_mot_HHH_b1_02234_af2_000000023_0001_1_14_H_._HHH_b1_00201_0001_0000200013_0000001_0_0001 (protein)
chain: NQEEIVRRLIEQFAENAGVPHVEVHVENGTFTVTVEGDDEAAEKVLETAREAAERFGIPIHVETE

molecular target: il2ra, P01589; assay: yeast display titration

Apparent Kd, inactive:
B1 no binding seen
B2 no binding seen
B3 no binding seen
B4 no binding seen
B5 no binding seen
B6 no binding seen
B7 no binding seen
B8 no binding seen
B9 no binding seen
B10 no binding seen
B11 no binding seen
B12 no binding seen
B13 no binding seen
B14 no binding seen
B15 no binding seen
B16 no binding seen
B17 no binding seen
B18 no binding seen
B19 no binding seen

Quoted at random: 2 entries already listed.
Apparent Kd, inactive:
B1 no binding seen
B3 no binding seen
